Laboratory results: publication PMC11555233
No constants are given. Whether binding was seen depends on the method and setting. Binding seen in cells or lysates may run through a third protein. A result given as binding can be weak or reduced; the word gives no strength.

Chains of the proteins cited; added tags and fusions are not shown. Lines headed by an entry give the natural chain unless they say otherwise; changes in a name come on top.
UniProt Q13485: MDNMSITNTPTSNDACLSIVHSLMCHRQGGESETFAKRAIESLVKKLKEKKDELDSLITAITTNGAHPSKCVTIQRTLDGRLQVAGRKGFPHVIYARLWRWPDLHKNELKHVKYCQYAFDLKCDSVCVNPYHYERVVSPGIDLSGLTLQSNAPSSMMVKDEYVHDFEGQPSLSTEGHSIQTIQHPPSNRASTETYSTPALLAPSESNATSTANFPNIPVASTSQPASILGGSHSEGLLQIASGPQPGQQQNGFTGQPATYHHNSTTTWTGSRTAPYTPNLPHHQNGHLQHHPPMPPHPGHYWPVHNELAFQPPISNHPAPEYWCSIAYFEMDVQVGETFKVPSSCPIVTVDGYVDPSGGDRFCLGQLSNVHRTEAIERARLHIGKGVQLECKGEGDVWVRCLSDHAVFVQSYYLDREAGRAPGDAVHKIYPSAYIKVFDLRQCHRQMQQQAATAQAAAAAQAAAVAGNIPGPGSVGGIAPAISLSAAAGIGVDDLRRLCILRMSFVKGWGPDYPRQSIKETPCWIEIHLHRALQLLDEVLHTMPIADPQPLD
UniProt P09874: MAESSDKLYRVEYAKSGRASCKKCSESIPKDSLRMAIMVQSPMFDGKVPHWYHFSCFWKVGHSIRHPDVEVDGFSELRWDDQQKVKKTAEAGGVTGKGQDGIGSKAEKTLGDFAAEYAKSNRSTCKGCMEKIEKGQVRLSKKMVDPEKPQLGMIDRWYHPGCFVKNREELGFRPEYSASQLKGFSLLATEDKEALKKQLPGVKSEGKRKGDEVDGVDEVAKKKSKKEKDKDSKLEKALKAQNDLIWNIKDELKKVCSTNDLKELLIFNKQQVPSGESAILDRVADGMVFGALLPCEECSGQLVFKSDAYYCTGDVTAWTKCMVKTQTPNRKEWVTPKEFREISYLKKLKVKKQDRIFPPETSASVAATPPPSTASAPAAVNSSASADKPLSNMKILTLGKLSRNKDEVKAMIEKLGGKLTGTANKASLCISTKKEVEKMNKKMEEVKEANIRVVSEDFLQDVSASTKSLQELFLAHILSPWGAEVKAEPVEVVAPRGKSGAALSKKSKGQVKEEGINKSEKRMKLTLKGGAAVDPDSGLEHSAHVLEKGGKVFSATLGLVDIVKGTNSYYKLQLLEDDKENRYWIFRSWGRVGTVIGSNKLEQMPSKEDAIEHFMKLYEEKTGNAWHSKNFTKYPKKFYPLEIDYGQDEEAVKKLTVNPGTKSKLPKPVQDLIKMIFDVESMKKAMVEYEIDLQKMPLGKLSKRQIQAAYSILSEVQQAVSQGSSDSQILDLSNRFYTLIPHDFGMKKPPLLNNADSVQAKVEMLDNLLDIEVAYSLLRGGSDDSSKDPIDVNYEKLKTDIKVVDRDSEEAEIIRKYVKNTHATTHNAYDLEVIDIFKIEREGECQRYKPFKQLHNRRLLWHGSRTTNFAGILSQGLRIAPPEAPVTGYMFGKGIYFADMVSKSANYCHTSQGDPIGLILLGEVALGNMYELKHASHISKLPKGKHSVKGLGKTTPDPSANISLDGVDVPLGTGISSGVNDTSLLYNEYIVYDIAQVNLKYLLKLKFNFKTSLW

Molecular target: SMAD4-5KA mutant (UniProt Q13485)
Experiment: co-IP; HEK293FT cells with SMAD4 and PARP1 constructs (WT and mutants); lysis in NETN buffer (20 mM Tris-HCl pH 8.0, 100 mM NaCl, 1 mM EDTA, 0.5% NP-40), affinity beads overnight at 4 °C; bait of each panel not given

Q: How did the binding turn out when PARP1 (WT) (from UniProt P09874 1-1014) was run?
A: binds
